This passage reports survivor count and T/C results from PubChem BioAssay AID248 (DTP/NCI, 2004).

For the experiment, the system named is L1210 leukemia ip in BDF1 mice, survival T/C. Put plainly: NCI In Vivo Anticancer Drug Screen. Data for tumor model L1210 Leukemia (intraperitoneal) in B6D2F1 (BDF1) mice. Particulars: T/C endpoint: mean survival time, higher T/C = longer survival.
Where [1] appears, read: dose: 200.0 mg/kg/injection, schedule: Q01DX009 (ip), vehicle: saline.
Setting [2] is: dose: 400.0 mg/kg/injection, schedule: Q04DX003 (ip), vehicle: saline.
The mark [3] stands for this setting: dose: 50.0 mg/kg/injection, schedule: Q01DX009 (ip), vehicle: Klucel (hydroxypropylcellulose) (HPC).

The list does not hold the whole screen: it is rich in T/C values a quarter to a half above the control, in often repeated tests (any T/C) and in doses without a T/C. Further doses and runs are listed elsewhere. T/C gives the treated animals as a percentage of the vehicle group. Some entries give survivors of the animals treated and no T/C: the source holds a T/C of zero for them, seemingly a mark for toxic or unscored doses. Some survivor counts are full or nearly so, which does not show that the dose was tolerated: survival well below the control is almost never listed, so the zero probably covers shortened survival too. Survivors were counted at the toxicity check, usually on the fifth day, unless a day is given; later deaths do not show. Schedule codes are those of the source, read here as Q, the interval in days (D) or hours (H), X, the number of doses. Some schedules carry Z or #; the key to these is not given. Some entries were tested several times; their values stand side by side, smallest first. Where survival is the endpoint, this PubChem deposit counts one and a half times the control or more as active, and values a quarter to a half above the control carry no call in these data; other NCI protocols may use other cut-offs.

Turning to `CC(=O)C(O)N1C(=O)C=CC1=O` (stereo unspecified), the survivor count by setting is: (dose: 10.0 mg/kg/injection, schedule: Q01DX009 (ip), vehicle: saline) 2 of 6; (dose: 10.0 mg/kg/injection, schedule: Q04DX003 (ip), vehicle: water) 3 of 6; (dose: 20.0 mg/kg/injection, schedule: Q## X006 (ip), vehicle: water) 2 of 6.

With `Cc1ccc(C(=O)C(C)(C)C)c(C)c1`, the survivor count is reported as 6 of 6 (dose: 100.0 mg/kg/injection, schedule: Q01DX009 (ip), vehicle: saline); 6 of 6 under setting [1]; 5 of 6 (dose: 400.0 mg/kg/injection, schedule: Q01DX009 (ip), vehicle: saline).

For the compound `CCN(CC)CCOc1ccc(Br)cc1`, the survivor count is, setting by setting: under setting [1], 2 of 6; (dose: 200.0 mg/kg/injection, schedule: Q04DX003 (ip), vehicle: saline) 2 of 6; under setting [2], 0 of 6.

Turning to `CCCCCC[Se][Se]CCCCCC`, the survivor count (dose: 25.0 mg/kg/injection, schedule: Q01DX009 (ip), vehicle: Klucel (hydroxypropylcellulose) (HPC)) is listed as 5 of 6; the survivor count (dose: 25.0 mg/kg/injection, schedule: Q04DX003 (ip), vehicle: Klucel (hydroxypropylcellulose) (HPC)) is reported as 6 of 6; the survivor count under setting [3] is 5 of 6; the survivor count (dose: 100.0 mg/kg/injection, schedule: Q01DX009 (ip), vehicle: Klucel (hydroxypropylcellulose) (HPC)) is recorded as 0 of 6; the survivor count (dose: 100.0 mg/kg/injection, schedule: Q04DX003 (ip), vehicle: Klucel (hydroxypropylcellulose) (HPC)) was 1 of 6 and 2 of 6; the survivor count (dose: 200.0 mg/kg/injection, schedule: Q04DX003 (ip), vehicle: Klucel (hydroxypropylcellulose) (HPC)) is given as 0 of 6. Under “dose: 400.0 mg/kg/injection, schedule: Q04DX003 (ip), vehicle: Klucel (hydroxypropylcellulose) (HPC)”, the survivor count is 0 of 6.

Turning to `CC(=O)Nc1cc([N+](=O)[O-])cc(C)c1O`, the survivor count (dose: 400.0 mg/kg/injection, schedule: Q01DX009 (ip), vehicle: saline with Tween-80) was 5 of 6.

`NC(=O)c1ccc(NC(=O)/C=C/C(=O)Nc2ccc(C(N)=O)cn2)nc1`: the T/C is 125 and 126 % of control (dose: 2.0 mg/kg/injection, schedule: Q01DX Z (ip), vehicle: saline); 131 and 147 % of control (dose: 4.0 mg/kg/injection, schedule: Q01DX Z (ip), vehicle: saline); 126 % of control (dose: 10.0 mg/kg/injection, schedule: Q04DX003 (ip), vehicle: saline); 135 % of control (dose: 20.0 mg/kg/injection, schedule: Q04DX003 (ip), vehicle: saline). Moreover, the survivor count is, setting by setting: (dose: 8.0 mg/kg/injection, schedule: Q01DX Z (ip), vehicle: saline) 6 of 6; (dose: 22.5 mg/kg/injection, schedule: Q01DX009 (ip), vehicle: saline) 6 of 6; (dose: 45.0 mg/kg/injection, schedule: Q01DX009 (ip), vehicle: saline) 0 of 6; (dose: 70.0 mg/kg/injection, schedule: Q04DX003 (ip), vehicle: saline) 6 of 6; (dose: 105.0 mg/kg/injection, schedule: Q04DX003 (ip), vehicle: saline) 5 of 6.

`CCCCCCCCCCC(C)c1ccc(S(=O)(=O)O)cc1` (stereo unspecified): for the setting “dose: 400.0 mg/kg/injection, schedule: Q01DX001 (ip), vehicle: saline sonified”, the survivor count was 3 of 6.

As to `NNC(=O)c1ccc(Cl)cc1Nc1ccccc1`, under “dose: 400.0 mg/kg/injection, schedule: Q01DX009 (ip), vehicle: Klucel (hydroxypropylcellulose) (HPC)”, the survivor count is 1 of 6.

With `Cc1ccc(S(=O)(=O)N(CCCc2c(N)nc(N)nc2-c2ccccc2)c2ccccc2)cc1`, the survivor count under setting [2] was 0 of 6.

On to `CCOC(=O)CN1C(=O)C(Cl)=C(Cl)C1=O`, for which the survivor count reads like this: (dose: 35.0 mg/kg/injection, schedule: Q01DX009 (ip), vehicle: other) 0 of 6; (dose: 55.0 mg/kg/injection, schedule: Q01DX009 (ip), vehicle: other) 0 of 6; (dose: 80.0 mg/kg/injection, schedule: Q01DX009 (ip), vehicle: other) 0 of 6; (dose: 100.0 mg/kg/injection, schedule: Q04DX003 (ip), vehicle: acetone) 0 of 6; (dose: 200.0 mg/kg/injection, schedule: Q04DX003 (ip), vehicle: acetone) 0 of 6; (dose: 400.0 mg/kg/injection, schedule: Q04DX003 (ip), vehicle: acetone) 0 of 6.

Regarding `[Cl][Pt+2][Cl].[NH-]CC1CCCC[N-]1` (stereo unspecified), the T/C is 141 % of control (dose: 25.0 mg/kg/injection, schedule: Q04DX003 (ip), vehicle: saline) and 131 % of control (dose: 50.0 mg/kg/injection, schedule: Q04DX003 (ip), vehicle: saline).

For `CC(Oc1nc2c(c(=O)n(C)c(=O)n2C)n1C)C1CCCC1` (stereo unspecified), the survivor count was 1 of 4 (dose: 200.0 mg/kg/injection, schedule: Q01DX001 (ip), vehicle: other) and 0 of 4 (dose: 400.0 mg/kg/injection, schedule: Q01DX001 (ip), vehicle: other).

In the case of `O=C(C[n+]1cc2ccccc2c2ccccc21)c1ccccc1`, the survivor count reads like this: under setting [3], 6 of 6; (dose: 200.0 mg/kg/injection, schedule: Q01DX009 (ip), vehicle: Klucel (hydroxypropylcellulose) (HPC)) 0 of 6.
